Measurements: the supplement of paper PMC3334620
The full ranking holds about 33,000 sequences; the median of “E-score (-0.5 to 0.5)” is about -0.0034, and the highest 2% start at about 0.25. Some of the results follow.

target: T1, Yap3 (UniProt P38749); experiment: PBM E-score (8-mer binding enrichment) (E-score (-0.5 to 0.5)); higher = stronger / more preferred TF binding; conditions: protein concentration: 100 nM; construct: GST-full length
T1 sequence: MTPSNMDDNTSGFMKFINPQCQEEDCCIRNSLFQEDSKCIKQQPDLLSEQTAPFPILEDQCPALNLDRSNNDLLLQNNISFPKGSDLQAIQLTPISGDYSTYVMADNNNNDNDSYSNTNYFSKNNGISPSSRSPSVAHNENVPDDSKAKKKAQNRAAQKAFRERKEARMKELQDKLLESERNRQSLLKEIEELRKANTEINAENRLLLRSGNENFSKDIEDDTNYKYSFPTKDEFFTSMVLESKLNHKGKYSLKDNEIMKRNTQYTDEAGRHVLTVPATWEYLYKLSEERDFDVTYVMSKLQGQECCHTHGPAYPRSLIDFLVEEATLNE
Summary of the method: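 Universal all-10-mer Agilent arrays, double-stranded by primer extension on fresh or once-stripped slides, were probed with about 100-200 nM GST-tagged yeast transcription factors made by PURExpress. Fluorescent anti-GST detected bound protein, and masliner normalised the scans. E-scores from the Universal PBM Analysis Suite were given to each ungapped eight-base word pooled with its reverse complement.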

Sequence	PBM E-score
GCCATAAC	-0.0573
CAGGCGCC	-0.0752
GAGCACTC	-0.16
GGACACCA	-0.0775
CTTGATAC	-0.0529
GCTCCAAC	-0.0214
GTAACCTA	0.133
AACATCTC	0.08
CTGAGCCA	-0.112
TGAAAGCA	0.254
ACGATCAG	0.00831
GGCGTCAC	-0.00084
GGGCCCTA	-0.276
AACGAAAC	0.159
AAACTTTG	0.0821
GCCATCAC	-0.0186
CCCATTGA	-0.0177
GCACTCTA	0.0293
ATGTATGA	0.105
CAACTAAA	0.0999
AACGAGTT	-0.0775
CAAGTAAC	0.043
CGAGGCTA	-0.0739
AGCCTTGG	-0.104
CAACCAGA	0.0129

Sequence	PBM E-score
CCCAGAAG	-0.217
AAGTGTCC	-0.0723
AGAATACT	0.164
AACTAGTA	0.109
CGGATCAG	-0.0755
GATAAACA	0.0819
GCTTTACA	0.0571
ACATAGGG	-0.0844
GGCAACTA	0.0389
ACGGGTAT	0.0167
CAACATCG	0.177
AGTCAAAC	-0.0978
GCAAACAA	0.272
ATCTTTGC	0.161
ACGTTTAA	0.137
CTCGTTAA	0.0917
AATTCGGA	0.0803
CAACGTTG	0.239
GGCGTCCA	-0.00825
ACCACTAC	-0.0507
GTGCTAAA	0.0452
CATAGCCG	-0.0425
CCCTCGAA	-0.166
GCAACTTA	0.1
GCTCCGCA	-0.131

Sequence	PBM E-score
ATGCATTC	0.0938
AGTTCGAC	-0.0163
CGTGCACA	-0.0397
AATGACCA	0.175
TCGGAAAA	0.275
GACATATC	0.121
AGCGAACT	-0.0138
CCTCGAGC	-0.0293
CAGAACAA	0.248
AGCCAACG	0.0109
ACGGGATA	0.11
AGTACTTA	-0.0181
ATAAGGTC	0.105
CCCAGGAG	-0.288
CCAGGGCA	-0.189
GCATGACC	-0.158
GACCGTCA	-0.106
CACTTTCA	-0.05
AGTTAACA	0.158
GTAAACAC	-0.0139
TATGAATA	0.266
AGTACCTA	0.0179
CCATACCG	0.0615
ATAGGGCA	-0.111
AACAGCAT	0.106

Sequence	PBM E-score
ATGCCACA	-0.00698
GGAGGTAC	-0.148
GAAACTGC	-0.152
TAATCATA	0.244
CGAGTTCC	0.136
CCCCATTC	-0.0929
CCACCAGC	-0.0909
GCCGGGAC	-0.242
GACGCCGA	0.165
AAGGCCAC	-0.143
AGGAGCGG	-0.277
CACAAATA	0.152
GCGTCGCA	-0.163
TTAACAAA	0.129
ACCAATAC	0.0412
AGAGAGCA	-0.149
CGATACAA	0.112
ACAATACA	0.0763
AGGGTGCG	-0.104
CGGGTCCA	-0.299
CCGCGCGG	0.293
TGATGACA	0.069
GCCCGCTA	-0.272
CGAATTAC	0.0851
GAGATATC	0.0326

A few values from the results shown:
AACATCTC – PBM E-score: 0.08
CAGGCGCC – PBM E-score: -0.0752
AGGGTGCG – PBM E-score: -0.104
ACGATCAG – PBM E-score: 0.00831
CACAAATA – PBM E-score: 0.152

(list continues)

Sequence	PBM E-score
ACTTATGC	0.0843
GGCGAACC	-0.223
CAAAACTC	0.13
CGCCGTAG	-0.114
TCCCGCGA	-0.19
AGGTGTGA	-0.0646
AGAGACGG	-0.143
TCGCCGCA	-0.102
CGACGCAA	-0.0781
ATAGCAAC	0.0566
AAGAGGGA	-0.122
ACTAGTGG	0.0165
AGTCTGTC	-0.157
AGGACCTA	0.0695
TAGGCGAA	-0.0231
GCGGTCAC	-0.23
AGGTCACA	-0.157
AATGACAA	0.211
CAGGGCGG	-0.275
AACAACGA	0.19
CCAGTTTA	0.00939
AACTTCTA	-0.0537
ACAGAGAG	-0.111
TAATACCA	0.204
AGCGTCGG	-0.0472

Sequence	PBM E-score
CCTCGTAA	0.203
AGCGATAG	-0.121
CCATGTTA	0.08
CGCAGGCG	-0.285
ACGAGACC	-0.0193
GCTGTCCA	0.0344
CTTTGAAA	0.11
TCAGTCCA	-0.171
AACCAATT	0.203
AAGCTAGT	-0.0349
CGTCAAAC	-0.00904
AACCGCTA	-0.108
CGCTGCGC	-0.281
AAGTCGAA	-0.0326
ATCAATAA	0.172
CGCATCAC	-0.0578
ATACGTTG	0.0773
TCCGGCCA	-0.115
ATCTCGCC	-0.131
AAACCTTT	-0.0466
AAAGATCT	-0.0503
TACTTATA	0.0807
TAATTTGA	0.0257
CATGTCGA	-0.00696
CCAGTTCC	-0.115

Sequence	PBM E-score
CGGCAGTC	-0.108
CGGCGGCA	-0.243
TATAGCCA	0.122
CCGTACAC	0.0127
CAAGGGGG	-0.226
ATCTGGAA	0.0543
GCCACGCA	-0.17
AAGTGTGA	0.0366
TCCTTACA	0.0749
CGTCCTAC	-0.0667
AGTTACAA	0.113
ATAGTAAT	0.212
AGACCAGG	-0.12
AGCGCAAA	-0.073
GACGGCGC	-0.115
AACTAGAT	0.0716
CCCATACC	-0.0532
GAACATCC	0.101
TCTATGCA	0.0427
ACACTAAG	-0.0672
CACGCGTA	0.0329
AATGCTGC	-0.00914
